According to the supplement of paper PMC3974653:
Where a name gives a salt, the structure may show the parent alone.

System: MTT (mouse pheochromocytoma)
Assay: IC50 of cell viability (ATP content)
Details: (24 or 48 h)
In short: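 Each well of a white 1536-well plate received 5 µl of MTT mouse pheochromocytoma cells at 200,000 cells/ml in DMEM containing 5% FBS and 1% horse serum. After overnight culture at 37°C, 5% CO2, cells were exposed for 24 or 48 hrs to 23 nl of library compound in DMSO, pinned at 8 final concentrations from 0.5 nM to 46 µM. CellTiter-Glo luminescence was read after 15 minutes, and IC50 was obtained from a four-parameter logistic fit of signals normalised to positive-control and DMSO wells.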

`CCC(C)C(C(=O)OCC[N+](C)(CC)CC)c1ccccc1` (stereo not drawn) was tested. Which “IC50 of cell viability” value did it give?
The value was over 46 µM.

`CN1[C@@H]2CC[C@@H]1CC(OC(=O)[C@@H](O)c1ccccc1)C2` (stereo partly drawn) [Homatropine hydrobromide (R,S)] was tested. Which “IC50 of cell viability” value did it give?
The value was over 46 µM.

`CN1[C@@H]2CC[C@H]1CC(OC(=O)[C@@H](O)c1ccccc1)C2` (stereo partly drawn) [HOMATROPINE] was tested. Which “IC50 of cell viability” value did it give?
Its value is over 46 µM.
